In patent US20210363266A1:
No constants are given. Whether binding was seen depends on the method and setting. Some binding calls cover weakened binding; strength is not graded here.

Sequences of proteins named here, by UniProt entry; tags and fusion partners are left off. A change or cut given only in a name is not applied to a line headed by its entry. Residues count along the entry.
UniProt Q07011, residues 24-186: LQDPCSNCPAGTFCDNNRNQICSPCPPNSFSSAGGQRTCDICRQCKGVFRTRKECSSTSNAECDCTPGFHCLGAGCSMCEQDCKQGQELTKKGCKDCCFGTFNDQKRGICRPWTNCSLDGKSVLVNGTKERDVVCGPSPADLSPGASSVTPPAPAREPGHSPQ

Target: human 4-1BB His protein (Sinobiological, Beijing #10041-H08H) (human) (UniProt Q07011)
Test: SPR Biacore T200

binding: binds
B1: humanized antibody huB1E10 (VH-c heavy chain and VL-c light chain) (antibody, human IgG2, kappa, V domains shown)
VH: EVQLVESGGGVVQPGRSLRLSCAASGFTFGDYYMYWVRQAPGKGLEWVATISEGGSYTYYPDNVKGRFTISRDNAKNTLYLQMNSLRAEDTAVYYCARYYSKALYAMDYWGRGTLVTVSS
VL: EIVLTQSPATLSLSPGERATLSCRASKSVSTSGFSYIHWYQQKPGQPPRLLIYTASNLESGVPARFSGSGSGTDFTLTISSLEPEDFAVYYCQHSRELPLTFGQGTKLEVKR
